No constants are given. Whether binding was seen depends on the method and setting. In cells and extracts the contact can be indirect. Binding can be weak; no strength is given. Where a sequence is shown, tags or fusion partners need not be part of it.
Target: T1, ASNA-1::GFP (C. elegans) (UniProt P30632)
T1 sequence: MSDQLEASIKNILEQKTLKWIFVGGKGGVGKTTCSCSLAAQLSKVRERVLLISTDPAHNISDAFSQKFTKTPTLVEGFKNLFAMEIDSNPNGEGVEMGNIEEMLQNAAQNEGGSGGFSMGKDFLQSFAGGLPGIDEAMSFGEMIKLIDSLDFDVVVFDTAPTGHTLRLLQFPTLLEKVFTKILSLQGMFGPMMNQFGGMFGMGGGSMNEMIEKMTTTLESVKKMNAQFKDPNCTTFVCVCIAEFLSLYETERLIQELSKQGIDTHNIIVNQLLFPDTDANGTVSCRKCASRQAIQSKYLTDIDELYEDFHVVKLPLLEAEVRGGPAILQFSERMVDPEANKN
Test: co-IP

Chains of the proteins cited; added tags and fusions are not shown. Lines headed by an entry give the natural chain unless they say otherwise; changes in a name come on top.
UniProt Q22235: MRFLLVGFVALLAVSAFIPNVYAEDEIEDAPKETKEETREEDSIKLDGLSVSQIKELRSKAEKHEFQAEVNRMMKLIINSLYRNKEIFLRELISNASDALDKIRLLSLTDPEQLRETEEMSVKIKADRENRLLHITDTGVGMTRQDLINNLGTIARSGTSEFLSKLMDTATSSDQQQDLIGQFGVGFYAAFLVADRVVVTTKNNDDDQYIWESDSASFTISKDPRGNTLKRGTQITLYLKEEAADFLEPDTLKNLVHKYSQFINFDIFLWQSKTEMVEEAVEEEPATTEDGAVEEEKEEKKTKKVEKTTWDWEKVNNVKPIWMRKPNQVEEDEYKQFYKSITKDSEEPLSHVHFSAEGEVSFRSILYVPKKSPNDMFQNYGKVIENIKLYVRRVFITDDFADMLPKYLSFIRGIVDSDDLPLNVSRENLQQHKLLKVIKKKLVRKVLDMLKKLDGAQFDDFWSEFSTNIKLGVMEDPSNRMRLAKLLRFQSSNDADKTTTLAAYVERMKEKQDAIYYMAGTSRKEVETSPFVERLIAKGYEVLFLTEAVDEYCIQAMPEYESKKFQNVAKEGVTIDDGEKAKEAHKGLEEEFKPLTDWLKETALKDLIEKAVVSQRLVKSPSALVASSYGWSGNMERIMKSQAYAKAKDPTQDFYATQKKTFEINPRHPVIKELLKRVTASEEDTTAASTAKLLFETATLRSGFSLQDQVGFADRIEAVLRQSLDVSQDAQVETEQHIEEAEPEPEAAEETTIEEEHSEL

Row | binding | Substance
1 | binds | 3xFlag::ENPL-1(ΔCBD) (from UniProt Q22235)
2 | no binding | Ollas::DAF-28::MYC (C. elegans)

Reference: article doi:10.1101/2022.06.15.496240
